Experimental data: PubChem BioAssay AID504744 (Drosophila RNAi Screening Center, 2011)
The screen tested about 23,000 reagents; below is an unselected part of those that have a named target and a result. Over the whole deposit, 98 (0.43%) got an active call. 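Only hit calls are given; the phospho-dAkt signals, z-scores and hit direction were not deposited.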 Names joined by + are all predicted targets of the reagent. No sequences are given here.

- Purpose: 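Find genes whose loss alters insulin-driven dAkt phosphorylation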 (primary screen)
- System: Drosophila Kc167 cells
- Reagents: long dsRNA against Drosophila genes, 250 ng dsRNA per well of a 384-well plate
- Timing: 3 days of knock-down, then overnight serum-free starvation before stimulation
- Challenge: bovine insulin at 387 nM for 10 minutes after 12 h without serum
- Measurement: 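In-cell antibody fluorescence for phospho-dAkt in each well over DNA-dye signal, with log2 residuals expressed as z-scores adjusted for cell count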
- Hit rule: 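Hit in the insulin screen when the two-replicate mean z-score is more extreme than plus or minus 2.5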

What did the screen give for wam [DRSC15171]?
Outcome: inactive

Which result is listed for CG14861 [DRSC14984]?
Outcome: inactive

For CG13380 + CG4174 [DRSC09988], how do the results read?
Outcome: inactive

For CG13380 + CG4174 [DRSC10406], how do the results read?
Outcome: inactive

What did the screen give for Rsf1 [DRSC03423]?
Outcome: inactive

Which result is listed for Rsf1 [DRSC21953]?
Outcome: inactive

What is on record for Pfrx [DRSC18856]?
Outcome: inactive

What is on record for Pfrx [DRSC19315]?
Outcome: inactive

With ATPsynC [DRSC15236], what does the deposit list?
Outcome: inactive

Which result is listed for CG5246 [DRSC15751]?
Outcome: inactive

How did the screen score Arv1 [DRSC11491]?
Outcome: inactive

With Dpm1 [DRSC02018], what was measured?
Outcome: inactive

With tai [DRSC02207], how do the results read?
Outcome: inactive

With tai [DRSC02673], what does the deposit list?
Outcome: inactive

For CG12507 [DRSC19463], how do the results read?
Outcome: inactive

How did the screen score CG3808 [DRSC10377]?
Outcome: inactive

For CG8032 [DRSC16365], what was measured?
Outcome: inactive

Which result is listed for not [DRSC11378]?
Outcome: inactive

How did the screen score twz [DRSC04069]?
Outcome: inactive

With witty [DRSC02378], how do the results read?
Outcome: inactive

With witty [DRSC21650], what was measured?
Outcome: inactive

What is on record for PH4alphaNE2 [DRSC16544]?
Outcome: inactive

How did the screen score CG1172 [DRSC12182]?
Outcome: inactive

With CG1172 [DRSC21954], what was measured?
Outcome: inactive
